The other results are listed elsewhere or left out. Shown are side measurements of this screen, not its main read-out; they come without a call. Compounds called inactive in the main read-out are mostly missing here. The note in brackets gives the kind of curve behind each potency; many fits are weak.
Experiment: qHTS Assay to Find Inhibitors of Chronic Active B-Cell Receptor Signaling
Conditions: ABC-DLBCL IkBa-CBG/CBR reporter, luminescence ratio (green luciferase fused to IkBa over red control in TMD8 lymphoma cells), 4 h
Summary of the method: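 Concentration-response series (up to 46 uM) were applied to TMD8 dual-reporter cells for 4 h at 37C with doxycycline. Green/red ratio, after filter-overlap correction, defined %Activity; red signal alone was normalised to basal cells and zero luminescence.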

[1] = measured here: CBR red luminescence, cell number

Row | Structure (SMILES) | AC50 [1] | AC50 (measured here: IkBa-CBG green luminescence)
1 | COc1cc2c(cc1OC)C(/C=C/c1ccco1)=NCC2 | 35.5 µM [falling, partial curve, poor fit] | –
2 | O=C(C[N+]12CCC(CC1)C(C(O)(c1ccccc1)c1ccccc1)C2)c1ccc(Br)cc1 (stereo unspecified) | 35.5 µM [falling, single point] | –
3 | O=c1cc(-c2ccc(Cl)cc2)oc(=O)[nH]1 | 2.82 µM [rising, partial curve, poor fit] | –
4 | C[C@]12CCC3C(CC[C@H]4C[C@@H](O)CC[C@]34C)[C@H]1CC[C@H]2O (stereo partly specified) | 32.6 µM [rising, partial curve, poor fit] | –
5 | CCN1CCN(C(=O)Cc2coc3ccc4ccccc4c23)CC1 | 6.51 µM [falling, single point] | –
6 | Cn1c(O)c(C=NCCOc2ccc(Cl)cc2)c(=O)n(C)c1=O | 14.1 µM [falling, single point] | –
7 | Cc1ccc(-n2c(O)c(C=NCc3ccco3)c(=O)[nH]c2=S)cc1C | 2.24 µM [rising, partial curve, poor fit] | –
8 | COc1ccc(Cn2c(O)c(/C=N/NC(=O)c3ccccc3)c(=O)[nH]c2=O)cc1 | 5.8 µM [falling, partial curve] | –
9 | CCCCn1c(=O)c(C(=O)Nc2ccsc2C(=O)OC)c(O)c2ccccc21 | 10.3 µM [falling, partial curve] | –
10 | c1ccc2c(N3CCNCC3)nsc2c1 | 0.891 µM [rising, full curve, poor fit] | –
11 | Nc1ccccc1C#CC(=O)c1ccccc1 | 10 µM [falling, partial curve] | –
12 | CC(=NCCc1ccccc1)c1c(O)n(C)c(=O)n(C)c1=O | 3.16 µM [falling, full curve, poor fit] | –
13 | CSc1ccc(/C=C/c2nc3ccccc3c(=O)n2-c2cccc(Cl)c2C)cc1 | 35.5 µM [rising, single point] | –
14 | O=S(=O)(c1ccc(O)cc1)c1ccc(O)cc1 | 35.5 µM [rising, single point] | –
15 | Oc1ccccc1-[n+]1c(-c2ccccc2)cc(-c2ccccc2)cc1-c1ccccc1 | 25.9 µM [falling, partial curve] | –
16 | CC/C(=N\NC(=O)c1ccccc1O)c1c(O)n(C2CCCCC2)c(=O)[nH]c1=O | 3.98 µM [falling, full curve] | –
17 | C[C@]12CC[C@H]3[C@@H](CCC4=CC(=O)CC[C@@]43O)[C@@H]1CCC2=O | 3.55 µM [rising, full curve] | –
18 | COC(=O)C1=C(c2ccc(OCc3ccccc3)cc2)C[C@@H]2CC[C@H]1N2C(=O)NCc1cccc(OC)c1 | 16.4 µM [falling, single point] | –
19 | CCOC(=O)C(O)(c1ccc(NC(=O)c2ccco2)c(OC)c1)C(F)(F)F (stereo unspecified) | 29.1 µM [falling, single point] | –
20 | CCCCC(=O)N/N=C/c1c(O)n(CC)c(=S)n(CC)c1=O | 16.4 µM [falling, partial curve, poor fit] | –

Row | Structure (SMILES) | AC50 [1] | AC50 (measured here: IkBa-CBG green luminescence)
21 | CCn1nc(/C=C/c2ccccc2)nc2c(=O)n(C)c(=O)nc1-2 | 20 µM [rising, partial curve, poor fit] | –
22 | COc1ccc(CCNc2oc(-c3ccc(OC)c(OC)c3)nc2P(=O)(OC)OC)cc1OC | 0.517 µM [rising, full curve, poor fit] | –
23 | COC(=O)c1nc(-c2ccc3c(n2)C(=O)C(N)=C(OC)C3=O)c(N)c(-c2ccc(OC)c(OC)c2O)c1C | 0.708 µM [rising, full curve, poor fit] | –
24 | O=C1NC(=O)C(CCc2ccncc2)(CCc2ccncc2)C(=O)N1C1CCCCC1 | 7.94 µM [rising, partial curve, poor fit] | 3.98 µM [rising, partial curve, poor fit]
25 | COc1ccc2c(c1)c(C(=O)O)c(C)n2CC(C)C | 6.51 µM [rising, single point] | –
26 | O=C1NC(=O)N(c2ccccc2)C(=O)/C1=C/c1ccc(Sc2ccccc2)o1 | 2.82 µM [rising, single point] | –
27 | CC(C)c1ccc(-n2c(O)c(C=NCCN3CCNCC3)c(=O)[nH]c2=S)cc1 | 22.4 µM [rising, single point] | –
28 | Cn1nc(OC(=O)Nc2ccc(F)cc2)cc1C(F)(F)F | 2.91 µM [rising, full curve, poor fit] | –
29 | COc1ccc(Cn2c(O)c(/C=N/NC(=O)c3ccccc3O)c(=O)[nH]c2=O)cc1 | 5.8 µM [falling, partial curve] | –
30 | COc1ccc2c(c1)C13CCCC[C@@H]1C(C2)N(C)CC3 (stereo partly specified) | 0.794 µM [rising, partial curve, poor fit] | –
31 | Cn1c(O)c(C2=NNC(c3ccc(Cl)cc3)C2)c(=O)n(C)c1=O (stereo unspecified) | 3.16 µM [falling, partial curve] | –
32 | CN1C(=O)C(=Cc2ccccc2Oc2ccc(Cl)cc2)C(=O)N(C)C1=O | 5.17 µM [falling, partial curve, poor fit] | –
33 | C#CCN1CCN(c2cccc(C(F)(F)F)c2)CC1 | 12.6 µM [rising, partial curve, poor fit] | –
34 | Cn1c(=O)oc2cc(S(=O)(=O)N3CCC(C(=O)NCc4cccs4)CC3)ccc21 | 6.51 µM [falling, single point] | –
35 | COc1ccccc1N1C(=O)NC(=O)C2(Cc3cc(C)ccc3N(C)C2)C1=O (stereo unspecified) | 4.47 µM [rising, partial curve, poor fit] | –
36 | Cc1cc(C)c(Cn2c(C(=O)O)c(C=O)c3ccccc32)c(C)c1 | 14.1 µM [rising, single point] | –
37 | N[C@@]1(C(=O)O)CC[C@@H](C(=O)O)C1 | 29.1 µM [falling, single point] | –
38 | Cc1ncc(CN2CCCC(C(=O)c3cccc(Cl)c3)C2)s1 (stereo unspecified) | 31.6 µM [rising, single point] | –
39 | CCCOC(=O)C1C2c3ccccc3C(c3ccccc32)C1C(=O)O (stereo unspecified) | 35.5 µM [rising, single point] | –
40 | COc1ccc(/C=C/C(=O)Nc2cccc(S(=O)(=O)N3CCCC3)c2)cc1OC | 35.5 µM [falling, single point] | –

From no. 20 up to 21, copied from above:
Row | Structure (SMILES) | AC50 [1] | AC50 (measured here: IkBa-CBG green luminescence)
20 | CCCCC(=O)N/N=C/c1c(O)n(CC)c(=S)n(CC)c1=O | 16.4 µM [falling, partial curve, poor fit] | –
21 | CCn1nc(/C=C/c2ccccc2)nc2c(=O)n(C)c(=O)nc1-2 | 20 µM [rising, partial curve, poor fit] | –

Source: PubChem BioAssay AID493014 (National Center for Advancing Translational Sciences (NCATS), 2011)
